Test results reported in patent publication US9745339B2 (GRAFFINITY PHARMACEUTICALS GMBH, priority 2012, dated 2017).

What was measured:
[1] = test system: Bevacizumab spiked into host cell proteins; test: Purification of antibody from cell culture supernatant by column chromatography; details: for purity: Bevacizumab 0.12 mg/ml spiked into host cell proteins (20% purity feed), elution 50 mM glycine pH 3.0; for yield: elution peak area relative to Protein A column taken as 100%, runs with pure antibody
Tocilizumab = test: Microtiter plate chromatography of resins: binding and elution of Tocilizumab
Experimental: (§1) Resins were assessed in packed mode by microtiter plate chromatography. For each column, approximately 30 μl of resin were transferred to a 384-well filter plate and sealed with appropriate top fits. Columns with rProtein A SEPHAROSE 4 FF and MABSORBENT A2P HF were included as controls.
(§2) Either 3.3 cv of whole IgGs dissolved at 0.5 mg ml^−1 in PBS or undiluted host cell proteins (HCP) were injected onto columns.
(§3) Unbound protein was washed from columns with 5 cv of PBS prior to elution with 5 cv of glycine buffer at pH 2.5. […] During injection of samples, speed was reduced to 10 g and centrifugation time increased to 5-10 min. Effluent fractions were collected in 384-well plates and concentrations of protein were analyzed by Bradford assay. Protein masses mi, mft and me (see below) were calculated as the product of fraction volume and measured protein concentration.
(§4) The fraction of bound protein was calculated as the difference between the total mass of protein injected mi and the mass of protein detected in the flowthrough mft, divided by the total mass of protein injected.
(§5) The yield of protein was calculated as the mass of protein eluted me, divided by the mass of protein injected mi.
(§6) The fraction of bound protein and the yield of protein were calculated for each resin based on data for whole IgG-antibodies. In the case of host cell proteins, only the fraction of bound protein is given. Selectivity of resins was calculated from data for Bevacizumab whole IgG and host cell proteins. Due to limited experimental precision, selectivity was truncated for values beyond 10.

[2] = test system: poly-IgG from human serum (h-poly-IgG); test: Microtiter plate chromatography of resins: binding and elution of human poly-IgG
Experimental: as §1, §2, §3, §4, §5, §6

[3] = mass eluted (glycine pH 2.5) / mass injected
[4] = L55-73: estimated values based on the knowledge obtained from L01-L54

NCCOCCOCCn1cnc2cc(C(=O)Nc3nnc(-c4ccco4)s3)ccc21
purity [1]: 93% | yield [1]: 100% | Tocilizumab Yield (Tocilizumab; [3]): 93% | h-poly-IgG Yield [2, 3]: 92%

NCCCn1cnc2cc(C(=O)Nc3nc(-c4ccncc4)cs3)ccc21 [Ligand L47, 1-(3-Amino-1-propyl)benzimidazole-5-carboxylic acid N-[4-(4-pyridyl)thiazol-2-yl] amide]
purity [1]: 85% | yield [1]: 100% | Tocilizumab Yield (Tocilizumab; [3]): 108% | h-poly-IgG Yield [2, 3]: 97%

NCCCn1cnc2cc(C(=O)Nc3nc(-c4ccccn4)cs3)ccc21 [Ligand L23, 1-(3-Amino-1-propyl)benzimidazole-5-carboxylic acid N-[4-(2-pyridyl)thiazol-2-yl] amide]
purity [1]: 82% | yield [1]: 100% | Tocilizumab Yield (Tocilizumab; [3]): 95% | h-poly-IgG Yield [2, 3]: 103%

Cc1nc2cc(C(=O)Nc3nc(-c4ccccn4)cs3)ccc2n1CCCN [Ligand L42, 1-(3-Amino-1-propyl)-2-methylbenzimidazole-5-carboxylic acid N-[4-(2-pyridyl)thiazol-2-yl] amide]
purity [1]: 89% | yield [1]: 100% | Tocilizumab Yield (Tocilizumab; [3]): 106% | h-poly-IgG Yield [2, 3]: 103%

Cn1c(CCCCCN)nc2cc(C(=O)Nc3nnc(-c4ccco4)s3)ccc21 [Ligand L31, 2-(5-Amino-1-pentyl)-1-methylbenzimidazole-5-carboxylic acid N-[5-(2-furyl)-1,3,4-thiadiazol-2-yl]amide]
Tocilizumab Yield (Tocilizumab; [3]): 95% | h-poly-IgG Yield [2, 3]: 95%

CCc1nc2cc(C(=O)Nc3nc(-c4ccco4)ns3)ccc2n1CCCN [Ligand L65, 1-(3-Amino-1-propyl)-2-ethylbenzimidazole-5-carboxylic acid N-[3-(2-furyl)-1,2,4-thiadiazol-5-yl] amide]
Tocilizumab Yield (Tocilizumab; [4]): >80% | h-poly-IgG Yield [2, 4]: >70%

NCCCn1cnc2cc(C(=O)Nc3nnc(-c4ccco4)s3)ccc21 [Ligand L05, 1-(3-Amino-1-propyl)benzimidazole-5-carboxylic acid N-[5-(2-furyl)-1,3,4-thiadiazol-2-yl]amide]
purity [1]: 86% | yield [1]: 100% | Tocilizumab Yield (Tocilizumab; [3]): 103% | h-poly-IgG Yield [2, 3]: 104%

Cc1nc2cc(C(=O)Nc3ncc(-c4ccco4)s3)ccc2n1CCCN [Ligand L63, 1-(3-Amino-1-propyl)-2-methylbenzimidazole-5-carboxylic acid N-[5-(2-furyl)thiazol-2-yl] amide]
Tocilizumab Yield (Tocilizumab; [4]): >80% | h-poly-IgG Yield [2, 4]: >70%

Cc1nc2cc(C(=O)Nc3nc(-c4ccco4)ns3)ccc2n1CCCN [Ligand L60, 1-(3-Amino-1-propyl)-2-methylbenzimidazole-5-carboxylic acid N-[3-(2-furyl)-1,2,4-thiadiazol-5-yl] amide]
Tocilizumab Yield (Tocilizumab; [4]): >80% | h-poly-IgG Yield [2, 4]: >70%

Cc1nc2cc(C(=O)Nc3nnc(-c4ccco4)s3)ccc2n1CCOCCOCCN
Tocilizumab Yield (Tocilizumab; [3]): 96% | h-poly-IgG Yield [2, 3]: 97%

Cc1nc2cc(C(=O)Nc3nc(-c4ccco4)cs3)ccc2n1CCCN [Ligand L62, 1-(3-Amino-1-propyl)-2-methylbenzimidazole-5-carboxylic acid N-[4-(2-furyl)thiazol-2-yl] amide]
Tocilizumab Yield (Tocilizumab; [4]): >80% | h-poly-IgG Yield [2, 4]: >70%

Cc1cnc(NC(=O)c2ccc3c(c2)ncn3CCCN)s1 [Ligand L17, 1-(3-Amino-1-propyl)benzimidazole-5-carboxylic acid N-(5-methylthiazol-2-yl) amide]
Tocilizumab Yield (Tocilizumab; [3]): 100% | h-poly-IgG Yield [2, 3]: 96%

Cc1nc2cc(C(=O)Nc3nnc(-c4ccco4)s3)ccc2n1CCOCCOCCNC(=O)CC[C@H](N)C(=O)NCCOCCOCCn1c(C)nc2cc(C(=O)Nc3nnc(-c4ccco4)s3)ccc21 [Ligand L54]
Tocilizumab Yield (Tocilizumab; [3]): 100% | h-poly-IgG Yield [2, 3]: 99%

Cn1nc(C(=O)Nc2ccc3c(c2)ncn3CCCN)c2ccccc21 [Ligand L01, 1-(3-Amino-1-propyl)-5-[(1-methylindazol-3-yl)carboxamido]benzimidazole]
Tocilizumab Yield (Tocilizumab; [3]): 110% | h-poly-IgG Yield [2, 3]: 97%

NCCCNc1ccc(C(=O)Nc2nc(-c3ccccn3)cs2)cn1 [Ligand L40, 6-[(3-Amino-1-propyl)amino]nicotinic acid N-[4-(2-pyridyl)thiazol-2-yl] amide]
purity [1]: 85% | yield [1]: 100% | Tocilizumab Yield (Tocilizumab; [3]): 101% | h-poly-IgG Yield [2, 3]: 87%

CCc1nc2cc(C(=O)Nc3nnc(-c4ccoc4)s3)ccc2n1CCCN [Ligand L66, 1-(3-Amino-1-propyl)-2-ethylbenzimidazole-5-carboxylic acid N-[5-(3-furyl)-1,3,4-thiadiazol-2-yl] amide]
Tocilizumab Yield (Tocilizumab; [4]): >80% | h-poly-IgG Yield [2, 4]: >70%

NCCCn1cnc2cc(C(=O)Nc3nccs3)ccc21 [Ligand L16, 1-(3-Amino-1-propyl)benzimidazole-5-carboxylic acid N-(thiazol-2-yl) amide]
Tocilizumab Yield (Tocilizumab; [3]): 103% | h-poly-IgG Yield [2, 3]: 92%

NCCCn1cnc2cc(C(=O)Nc3ccc(-c4ccco4)nn3)ccc21 [Ligand L59, 1-(3-Amino-1-propyl)benzimidazole-5-carboxylic acid N-[6-(2-furyl)pyridazin-3-yl] amide]
Tocilizumab Yield (Tocilizumab; [4]): >80% | h-poly-IgG Yield [2, 4]: >70%

CCc1nc2cc(C(=O)Nc3ccc(-c4ccco4)nn3)ccc2n1CCCN [Ligand L69, 1-(3-Amino-1-propyl)-2-ethylbenzimidazole-5-carboxylic acid N-[6-(2-furyl)pyridazin-3-yl]amide]
Tocilizumab Yield (Tocilizumab; [4]): >80% | h-poly-IgG Yield [2, 4]: >50%

NCCCn1cnc2cc(C(=O)Nc3nc(-c4ccco4)cs3)ccc21 [Ligand L57, 1-(3-Amino-1-propyl)benzimidazole-5-carboxylic acid N-[4-(2-furyl)thiazol-2-yl] amide]
Tocilizumab Yield (Tocilizumab; [4]): >80% | h-poly-IgG Yield [2, 4]: >70%

COc1nc2cc(C(=O)Nc3nnc(-c4ccco4)s3)ccc2n1CCCN [Ligand L45, 1-(3-Amino-1-propyl)-2-methoxybenzimidazole-5-carboxylic acid N-[5-(2-furyl)-1,3,4-thiadiazol-2-yl] amide]
Tocilizumab Yield (Tocilizumab; [3]): 102% | h-poly-IgG Yield [2, 3]: 99%

N[C@@H](CCC(=O)NCCOCCOCCn1cnc2cc(C(=O)Nc3nnc(-c4ccco4)s3)ccc21)C(=O)NCCOCCOCCn1cnc2cc(C(=O)Nc3nnc(-c4ccco4)s3)ccc21 [Ligand L53]
Tocilizumab Yield (Tocilizumab; [3]): 91% | h-poly-IgG Yield [2, 3]: 95%

NCCCn1cnc2cc(C(=O)Nc3nnc(-c4ccncc4)s3)ccc21 [Ligand L21, 1-(3-Amino-1-propyl)benzimidazole-5-carboxylic acid N-[5-(4-pyridyl)-1,3,4-thiadiazol-2-yl]amide]
Tocilizumab Yield (Tocilizumab; [3]): 86% | h-poly-IgG Yield [2, 3]: 81%

NCCCn1cnc2cc(C(=O)Nc3nc(-c4ccccc4)ns3)ccc21 [Ligand L22, 1-(3-Amino-1-propyl)benzimidazole-5-carboxylic acid N-(3-phenyl-1,2,4-thiadiazol-5-yl) amide]
Tocilizumab Yield (Tocilizumab; [3]): 94% | h-poly-IgG Yield [2, 3]: 108%

CCc1nc2cc(C(=O)Nc3ncc(-c4ccco4)s3)ccc2n1CCCN [Ligand L68, 1-(3-Amino-1-propyl)-2-ethylbenzimidazole-5-carboxylic acid N-[5-(2-furyl)thiazol-2-yl] amide]
Tocilizumab Yield (Tocilizumab; [4]): >80% | h-poly-IgG Yield [2, 4]: >70%

CCSc1nnc(NC(=O)c2ccc3c(c2)ncn3CCCN)s1 [Ligand L12, 1-(3-Amino-1-propyl)benzimidazole-5-carboxylic acid N-(2-ethylthio-1,3,4-thiadiazol-5-yl) amide]
Tocilizumab Yield (Tocilizumab; [3]): 106% | h-poly-IgG Yield [2, 3]: 96%

NCCCn1cnc2cc(C(=O)Nc3nc4c(s3)CCC4)ccc21 [Ligand L32, 1-(3-Amino-1-propyl)benzimidazole-5-carboxylic acid N-(5,6-dihydro-(4H)-cyclopentathiazol-2-yl) amide]
Tocilizumab Yield (Tocilizumab; [3]): 98% | h-poly-IgG Yield [2, 3]: 91%

NCCCOc1ccc(C(=O)Nc2nnc(-c3ccco3)s2)cc1 [Ligand L20, 4-[(1-Amino-3-propyl)oxy]benzoic acid N-[5-(2-furyl)-1,3,4-thiadiazol-2-yl] amide]
Tocilizumab Yield (Tocilizumab; [3]): 92% | h-poly-IgG Yield [2, 3]: 105%

CCc1nc2cc(C(=O)Nc3nc(-c4ccco4)cs3)ccc2n1CCCN [Ligand L67, 1-(3-Amino-1-propyl)-2-ethylbenzimidazole-5-carboxylic acid N-[4-(2-furyl)thiazol-2-yl] amide]
Tocilizumab Yield (Tocilizumab; [4]): >80% | h-poly-IgG Yield [2, 4]: >70%

NCCCn1cnc2cc(C(=O)Nc3nc4ccccc4o3)ccc21 [Ligand L08, 1-(3-Amino-1-propyl)benzimidazole-5-carboxylic acid N-(benzoxazol-2-yl) amide]
Tocilizumab Yield (Tocilizumab; [3]): 100% | h-poly-IgG Yield [2, 3]: 95%

NCCCNc1ccc(C(=O)Nc2nnc(-c3ccco3)s2)cc1[N+](=O)[O-] [Ligand L18, 4-[(3-Amino-1-propyl)amino]-3-nitrobenzoic acid N-[5-(2-furyl)-1,3,4-thiadiazol-2-yl]amide]
Tocilizumab Yield (Tocilizumab; [3]): 100% | h-poly-IgG Yield [2, 3]: 107%
